Measured values reported in US20170035908A1.
These are yes or no findings as the source states them, for the method shown. Some binding calls cover weakened binding; strength is not graded here.

Key:
[1] = target: T1, linear phage-displayed peptide …; assay: phage-displayed peptide screened on hPAM4 and mPAM4
T1 sequence (peptide): WTWNITKAYPLP

[2] = target: T2, linear phage-displayed peptide …; assay: phage-displayed mutational library, panned and screened as before (hPAM4 and mPAM4)
T2 sequence (peptide): WTWNITKEYPQP

B1: humanized PAM4 antibody (antibody, V domains shown)
VH: QVQLQQSGAEVKKPGASVKVSCEASGYTFPSYVLHWVKQAPGQGLEWIGYINPYNDGTQYNEKFKGKATLTRDTSINTAYMELSRLRSDDTAVYYCARGFGGSYGFAYWGQGTLVTVSS
VL: DIQLTQSPSSLSASVGDRVTMTCSASSSVSSSYLYWYQQKPGKAPKLWIYSTSNLASGVPARFSGSGSGTDFTLTISSLQPEDSASYFCHQWNRYPYTFGGGTRLEIKR
With B1 the binding [1] was “binds” and the binding [2] was “binds”.

B2: murine PAM4 antibody (antibody, V domains shown)
VL: DIVMTQSPAIMSASPGEKVTMTCSASSSVSSSYLYWYQQKPGSSPKLWIYSTSNLASGVPARFSGSGSGTSYSLTISSMEAEDAASYFCHQWNRYPYTFGGGTKLEIK
V domain: EVQLQESGPELVKPGASVKMSCKASGYTFPSYVLHWVKQKPGQGLEWIGYINPYNDGTQYNEKFKGKATLTSDKSSSTAYMELSRLTSEDSAVYYCARGFGGSYGFAYWGQGTLITVSA
With B2 the binding [2] was “binds”.
